Primary screen of a compound library

Amino acid sequences for entries named in this document (tags omitted).
UniProt E9BF75, entry or part of it: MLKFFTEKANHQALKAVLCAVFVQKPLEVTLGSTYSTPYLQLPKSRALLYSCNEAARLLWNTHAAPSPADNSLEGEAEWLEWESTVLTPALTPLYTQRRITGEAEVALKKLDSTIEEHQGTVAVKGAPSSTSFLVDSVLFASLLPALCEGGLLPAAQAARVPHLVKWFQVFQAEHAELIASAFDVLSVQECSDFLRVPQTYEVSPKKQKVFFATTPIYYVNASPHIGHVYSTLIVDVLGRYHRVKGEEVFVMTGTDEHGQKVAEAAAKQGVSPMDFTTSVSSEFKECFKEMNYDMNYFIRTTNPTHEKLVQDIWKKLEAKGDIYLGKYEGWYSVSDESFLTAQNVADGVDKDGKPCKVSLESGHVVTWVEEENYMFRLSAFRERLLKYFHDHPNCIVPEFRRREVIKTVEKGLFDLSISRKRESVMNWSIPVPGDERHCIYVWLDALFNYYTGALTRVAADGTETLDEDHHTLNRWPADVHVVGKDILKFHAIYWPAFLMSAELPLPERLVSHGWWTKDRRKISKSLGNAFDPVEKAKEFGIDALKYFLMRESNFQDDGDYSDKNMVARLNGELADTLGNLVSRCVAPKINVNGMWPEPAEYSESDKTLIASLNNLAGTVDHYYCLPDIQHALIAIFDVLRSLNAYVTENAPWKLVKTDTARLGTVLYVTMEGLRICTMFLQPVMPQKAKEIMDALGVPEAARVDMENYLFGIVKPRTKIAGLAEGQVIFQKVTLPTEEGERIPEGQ

Source: ChEMBL document CHEMBL3988442, “University of Dundee, Small-Polar-MMV Screening Library” (2021).

Results are percentages, as filed.
The controls that fix the scale are not given in the record; negative values are as filed.
Compounds were drawn at random from those tested, without regard to their results.

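Methionyl-tRNA synthetase (putative), Leishmania donovani (UniProt E9BF75). Primary screen of methionyl-tRNA synthetase; the read-out is not stated. The test concentration is not given. Values are per cent inhibition. Size under these conditions: about 68,000 compounds, about 24 of them at 50% or above in at least one test.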

{"compound": "O=C1CCCN1CCCC(=O)N1CCC2(CC1)[C@H](O)C[C@@H]2O", "inhibition": 1.023}
{"compound": "FC(F)(F)COCCN1CCN(c2ccc3nncn3n2)CC1", "inhibition": 10.12}
{"compound": "c1cc2cc[nH]c2c(CC2CN(Cc3cncs3)C2)n1", "inhibition": 13.83}
{"compound": "CC(C)c1nc(O)c2nnn(C[C@H]3CCCN(Cc4cccs4)C3)c2n1", "inhibition": 2.625}
{"compound": "COCc1nc(C(=O)N2CCCC(n3cccn3)C2)cs1", "stereo": "stereo unspecified", "inhibition": 8.014}
{"compound": "CS(=O)(=O)c1cccc2c1CCCN2C(=O)Cc1cccc(F)c1", "inhibition": 14.81}
{"compound": "COCC1CN(C(=O)Nc2cc(-n3cccc3)ccc2F)CCO1", "stereo": "stereo unspecified", "inhibition": 1.397}
{"compound": "O=C(Cc1ccsc1)N1C[C@@H]2COC[C@]2(COCc2cccnc2)C1", "inhibition": 4.965}
{"compound": "CNC(=O)[C@@]12CCC3(CCN(S(C)(=O)=O)CC3)[C@@H]1CN(C(C)=O)C2", "inhibition": 16.24}
{"compound": "Cc1nn(C)c(Cl)c1C1CCCN1C(=O)c1ccc2c(c1)OCO2", "stereo": "stereo unspecified", "inhibition": 3.922}
{"compound": "O=C(CN1CC(n2cccn2)C1)NCCCc1ccccc1", "inhibition": 11.11}
{"compound": "CCc1cnc(N2CCOC(CCOC)C2)nc1", "stereo": "stereo unspecified", "inhibition": 8.803}
{"compound": "COc1ccc2c(c1)CN(CC(=O)NC1CCCC1)CC2", "inhibition": 6.402}
{"compound": "CCc1nnsc1C(=O)N1CCOC(c2nc(C)n[nH]2)C1", "stereo": "stereo unspecified", "inhibition": 14.58}
{"compound": "Cn1cnnc1C1CCCN(C(=O)c2cc(Cl)c(Cl)n2C)C1", "stereo": "stereo unspecified", "inhibition": 16.57}
{"compound": "c1ccc(CCN2CCN(c3ncnc4[nH]ccc34)CC2)cc1", "inhibition": 5.199}
{"compound": "CN1[C@H](CO)C[C@H](CNCc2ccc(Cl)c(F)c2)[C@@H]1c1ccccc1F", "inhibition": 22.56}
{"compound": "CC(Cc1ccccc1F)C(=O)Nc1cccc(OCC(N)=O)c1", "stereo": "stereo unspecified", "inhibition": 15.69}
{"compound": "COc1ccc(CC(=O)NCCNS(=O)(=O)c2ccc(C)cc2)cc1", "inhibition": 13.5}
{"compound": "Cn1ncc2c(=O)[nH]c(CN3CCCC3CC(C)(C)C)nc21", "stereo": "stereo unspecified", "inhibition": 15.92}
{"compound": "COc1coc(C(=O)Nc2nc(-c3ccncc3)cs2)cc1=O", "inhibition": 16.13}
{"compound": "COc1ccc(S(=O)(=O)NCCCc2ccc(N(C)C)cc2)cc1Cl", "inhibition": 11.51}
{"compound": "CN(C)C(=O)N1CCN(C(=O)c2cccc(Cl)c2)CC2(CNC(=O)C2)C1", "stereo": "stereo unspecified", "inhibition": 14.6}
{"compound": "CCN(C)S(=O)(=O)N[C@H]1CN(c2ccc(F)cn2)C[C@@H]1C(C)C", "inhibition": 6.949}
{"compound": "Cn1cc2ncn(CCC3CCN(Cc4ccccc4)C3)c(=O)c2n1", "stereo": "stereo unspecified", "inhibition": 14.21}
{"compound": "CS(=O)(=O)N1CCC(Oc2ccc(C(=O)N3CCSCC3)cc2Cl)CC1", "inhibition": 9.735}
{"compound": "COc1cccc(C(=O)NC(CC(=O)O)c2cccs2)c1OC", "stereo": "stereo unspecified", "inhibition": 20.34}
{"compound": "Cn1ccnc1CN1CCC2(CC1)COCCN(c1ncccn1)C2", "inhibition": 6.593}
{"compound": "NC(=O)CCn1cc(CNCCCc2ccncc2)c2ccccc21", "inhibition": 9.157}
{"compound": "CCn1nc(C)c2nc(C(C)C)nc(N3CCC(O)CC3)c21", "inhibition": 10.17}
{"compound": "CC(=O)NCCCNC(=O)N1CCN(c2cc(F)ccc2F)CC1", "inhibition": 12.47}
{"compound": "CC[C@H]1CN(S(C)(=O)=O)CC[C@H]1CC(=O)NCCSC", "inhibition": 15.93}
{"compound": "CCc1nc(CN2CCN(c3ncnc4cc(F)ccc34)CC2)no1", "inhibition": 8.661}

For reference, 4 entries once more:

{"compound": "Cn1cc2ncn(CCC3CCN(Cc4ccccc4)C3)c(=O)c2n1", "stereo": "stereo unspecified", "inhibition": 14.21}
{"compound": "COc1cccc(C(=O)NC(CC(=O)O)c2cccs2)c1OC", "stereo": "stereo unspecified", "inhibition": 20.34}
{"compound": "FC(F)(F)COCCN1CCN(c2ccc3nncn3n2)CC1", "inhibition": 10.12}
{"compound": "CC[C@H]1CN(S(C)(=O)=O)CC[C@H]1CC(=O)NCCSC", "inhibition": 15.93}